The values below come from patent EP1997826A2 (Tecnogen S.p.A., priority 2007, dated 2008).

The nature of this series: general procedure: Fmoc solid-phase peptide synthesis; polystyrene (1% divinylbenzene, 100-200 mesh) derivatized with hydroxymethylphenoxyl group, 0.84 meq/g (Novabiochem); HOBt/HBTU. The note with it: trifluoroacetate salt.

For the substance “(H-L-Cys(p-MeOBzl)-D-Arg-D-Thr-D-Tyr)4-L-Lys2-L-Lys-L-Lys-OH”, the step yield (purification step, purification yield) came to 24.8%. Also, the “crude HPLC purity” value (whole synthesis, 225 nm, scale of the general procedure 1.44 mmol) is recorded as 75%. For the same substance, the “final HPLC purity” value (whole synthesis, analytical RP-HPLC, C18 Jupiter, 225 nm, scale of the general procedure 1.44 mmol) was found to be 99%. Further, the crude yield (whole synthesis, calculated from the initial 1.44 mmol, scale 1.44 mmol) is on record as 73.4%. For the same substance, the crude mass (whole synthesis, scale 1.44 mmol) is listed as 4.26 g.
